# Experimental data from the supplement of paper PMC10338343.
# ± gives the standard deviation. This is a selection; strong and weak results do not stand in their true shares. The uncertainty is large for many entries.
# Test system: MILI (PIWIL2) piRISC loaded with piRNA #2 (26 nt)
# Test: pre-steady-state target cleavage rate (min^-1); MIWI and MILI are mouse PIWI proteins and EfPiwi is from a freshwater sponge; tags in brackets are library labels; higher = faster piRNA-guided slicing of the target
# Conditions: guide: piRNA #2 5'p-UUAGGUAACCCAGUAGAUCCAGAGGA; auxiliary factor: 500 nM mouse GTSF1
# Summary of the method: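 Cleave-'n-Seq: 1 nM active affinity-purified piRISC with one synthetic guide and 0.1 nM transcribed, DNA-blocked target RNA library were mixed, with or without 500 nM GTSF1 partner protein, in HEPES–potassium acetate buffer at 33 °C for 0–8 or 0–960 min. Uncleaved targets were sequenced and normalised to depth and to weakly complementary targets, three trials were pooled, and k3 was capped at 0.0001 min^-1. The pre-steady-state cleavage rate was fitted […].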
row,Sequence,pre-steady-state target cleavage rate
1,CUUAAGGAGUGGAUCUACUGGGAAUCCUAA,0.00062 ± 0.014
2,CUUAUCCUCUGGAUGUACUGGCUUACCUAA,0.00127 ± 0.015
3,CUUAAGGAGACCUAGUACUGGGUCUACCUAA,0.000503 ± 0.023
4,CUUAAGGUCUGGAUGUACUGGGUUACCAAA,0.00659 ± 0.0066
5,CUUAAGGACUGGUUCUACUCGGUUACCUAA,0.00102 ± 0.018
6,CUUAAGGUGACGAUCUACUGGGUUACCUAA,0.00259 ± 0.0055
7,CUUAAGGAGACCUUCUACUGGGCUUACCUAA,0.000731 ± 0.016
8,CUUAAGGACUGGAUCUACCUGGGUUACCUAA,0.000186 ± 0.06
9,CUUAACCUCUGGAGUCUACUGGGUUACCUAA,0.135 ± 0.031
10,CUUAAGGAGAGGAUCUACUGGUGUUACCUAA,0.00103 ± 0.011
11,CUUAAGGACAGGUUCUACUGGGUUACCUAA,0.00207 ± 0.012
12,CUUAAGGAGACCUUCUACUGGGUAACCAAA,0.000559 ± 0.02
13,CUUAUCCUCUGGAUCUAGUGGGUUUCCUAA,0.055 ± 0.016
14,CUUAAGGAGACGAUCAACUGGGUAACCUAA,0.000808 ± 0.012
15,CUUAAGGAGAGGAUCUACUGGCUUACCUAA,0.000161 ± 0.045
16,CUUAAGGAGACGAUCUACUGGGAUUCCUAA,0.000958 ± 0.0076
17,CUUAAGGAGACCUACGACUGGGUUACCUAA,0.00024 ± 0.027
18,CUUAAGGACAGGAUCAACUGGGUUACCUAA,0.00526 ± 0.0056
19,CUUAAGGAGUGGAUGCUACUGGGUUACCUAA,0.00269 ± 0.0066
20,CUUAAGGUCUGGAUCUACUGCGUUACGUAA,0.000905 ± 0.0099
21,CUUAAGGAGACCUAGUACUGGGUUACGUAA,0.000228 ± 0.034
22,CUUAACCUGUGGAUCUACUGGCUUACCUAA,0.000552 ± 0.022
23,CUUAAGGAGAGGAACUACUGGCUUACCUAA,0.000198 ± 0.043
24,CUUAAGGAGACCAUCUUCUCGGUUACCUAA,0.000779 ± 0.011

row,Sequence,pre-steady-state target cleavage rate
1,CUUAAGGAGACCUUCUACUUGGGUUACCUAA,0.00106 ± 0.0069
2,CUUAAGGAGACCAGCUACUGGGUUACCUAA,0.000916 ± 0.011
3,CUUAAGCUCUGGAUGUACUGGCUUACCUAA,0.00141 ± 0.0077
4,CUUAUCCUCUGGAACUACUGGGUUAGCUAA,0.0654 ± 0.021
5,CUUAAGGAGUGGAUCAACUGGGAUACCUAA,0.00147 ± 0.0075
6,CUUAAGGAGAGGAUCUACACCGUUACCUAA,0.000174 ± 0.021
7,CUUAAGGAGACGAUCUACUGCGUUACCAAA,0.000223 ± 0.016
8,CUUAAGGAGAGGAUCUACCUGGGUUACCUAA,0.00089 ± 0.0098
9,CUUAAGGAGACCUACUACUGGUGUUACCUAA,0.000484 ± 0.021
10,CUUAAGGACUGGUAUCUACUGGGUUACCUAA,0.00878 ± 0.0089
11,CUUAAGGAGACGAUCUACUUGGUUACCUAA,0.000764 ± 0.0092
12,CUUAAGGACUGGUUCUUCUGGGUUACCUAA,0.0097 ± 0.0098
13,CUUAAGGAGACCAUCUUCUGGGAUACCUAA,0.000628 ± 0.015
14,CUUAAGGAGAGGAUCACUGGGUUACCUAA,0.0011 ± 0.0079
15,CUUAACCUCUGGAUCUACUGGCUUACGUAA,0.000314 ± 0.025
16,CUUAAGCUCUGGAUCUACUGCGUUUCCUAA,0.00112 ± 0.0092
17,CUUAUCCUCUGGAUGUACUGGGUUACGUAA,0.0286 ± 0.0078
18,CUUAAGGACUGCAUCUACUGGGUUAGCUAA,0.00534 ± 0.0084
19,CUUAAGCUCUGGAUCUACUGCGUAACCUAA,0.00389 ± 0.006
20,CUUAAGGACUCCAUCUACUGGGUUACCUAA,0.00129 ± 0.0064
21,CUUAAGGUCUGGAACUACUGCGUUACCUAA,0.00453 ± 0.01
22,CUUAAGCUGUGGAUCUACUGGGUUUCCUAA,0.00403 ± 0.0056
23,CUUAAGGAGUGGAACUACUGGGUUAGCUAA,0.00253 ± 0.011
24,CUUAAGGAGACCAUCUACUGGGAUACCUAA,0.000736 ± 0.008

# 3 entries drawn at random from those above, as already listed:
row,Sequence,pre-steady-state target cleavage rate
6,CUUAAGGUGACGAUCUACUGGGUUACCUAA,0.00259 ± 0.0055
13,CUUAAGGAGACCAUCUUCUGGGAUACCUAA,0.000628 ± 0.015
20,CUUAAGGACUCCAUCUACUGGGUUACCUAA,0.00129 ± 0.0064

# Going on with the list:

row,Sequence,pre-steady-state target cleavage rate
1,CUUAUACCUCUGGAUCUACUGGGUUACCUAA,0.251 ± 0.058
2,CUUAAGGAGACGUUCUACAGGGUUACCUAA,0.0028 ± 0.0034
3,CUUAUCCUCUGGAUCUACUGGGUUACGCUAA,0.174 ± 0.026
4,CUUAACCUCUGGAACUACUGGCUUACCUAA,0.00179 ± 0.0065
5,CUUAAGGACUGGAUCUACUGGGUUUCCUAA,0.00233 ± 0.011
6,CUUAAGGACUGGAACUACUGGGUUACCAAA,0.000534 ± 0.032
7,CUUAAGGACUGGAUGUACUGGGUUACGUAA,0.00599 ± 0.0084
8,CUUAAGGAGACGAUCUAGUGGGUUACCUUA,0.0012 ± 0.0086
9,CUUAAGGAGUGGAUGUACUGCGUUACCUAA,0.00339 ± 0.0062
10,CUUAACCUCUGGAUCUACUGGGUUUCCUUA,0.225 ± 0.066
11,CUUAAGGAGACGAUCUACUGGGAUACCUAA,0.000846 ± 0.0074
12,CUUAAGGAGAGGAUCUUCUGCGUUACCUAA,0.00104 ± 0.0073
13,CUUAACCUCUGGAUCUUCUGGGUAACCUAA,0.0414 ± 0.016
14,CUUAAGGAGACGAUCUACUGGCAUACCUAA,0.00013 ± 0.032
15,CUUAAGGAGAGGAUCUACUGCGUUACCUAA,0.0028 ± 0.0042
16,CUUAAGGACUGGAUCUACUGGGUAACCUAA,0.00568 ± 0.0083
17,CUUAAGGAGAGGAUCUAUGGGUUACCUAA,0.000925 ± 0.0094
18,CUUAAGGAGACCUUCUACUGGGGUACCUAA,< 0.0001
19,CUUAAGCUCUGCAUCUACUCGGUUACCUAA,0.0009 ± 0.0089
20,CUUAAGGACUGGAUCAACUGGGUUACCAAA,0.0038 ± 0.0099
21,CUUAAGGACUGGAACUACUGGGUUAGCUAA,0.00331 ± 0.013
22,CUUAAGGAGACCUUCUACUGGGUGACCUAA,0.000199 ± 0.027
23,CUUAAGGAGUCCAUCUACUGGGUUACCUAA,0.00123 ± 0.0051
